These are yes or no findings as the source states them, for the method shown. Binding seen in cells or lysates may run through a third protein. Some entries that bind do so weakly or less than the wild type.

Chains of the proteins cited; added tags and fusions are not shown. Lines headed by an entry give the natural chain unless they say otherwise; changes in a name come on top.
UniProt Q13177: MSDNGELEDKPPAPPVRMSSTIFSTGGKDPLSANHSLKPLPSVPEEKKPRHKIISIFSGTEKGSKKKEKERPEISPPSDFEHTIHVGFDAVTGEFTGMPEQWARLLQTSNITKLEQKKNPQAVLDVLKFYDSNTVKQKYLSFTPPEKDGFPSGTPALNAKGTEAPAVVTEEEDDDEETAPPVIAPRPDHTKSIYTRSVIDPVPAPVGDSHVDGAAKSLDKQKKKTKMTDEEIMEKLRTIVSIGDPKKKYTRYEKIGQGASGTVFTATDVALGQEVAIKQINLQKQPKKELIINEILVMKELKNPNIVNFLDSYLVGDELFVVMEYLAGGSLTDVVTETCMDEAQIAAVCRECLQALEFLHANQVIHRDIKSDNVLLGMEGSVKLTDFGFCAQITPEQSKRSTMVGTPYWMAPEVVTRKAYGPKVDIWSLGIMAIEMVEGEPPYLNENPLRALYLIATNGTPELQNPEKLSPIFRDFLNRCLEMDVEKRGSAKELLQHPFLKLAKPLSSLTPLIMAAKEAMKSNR
UniProt O15198: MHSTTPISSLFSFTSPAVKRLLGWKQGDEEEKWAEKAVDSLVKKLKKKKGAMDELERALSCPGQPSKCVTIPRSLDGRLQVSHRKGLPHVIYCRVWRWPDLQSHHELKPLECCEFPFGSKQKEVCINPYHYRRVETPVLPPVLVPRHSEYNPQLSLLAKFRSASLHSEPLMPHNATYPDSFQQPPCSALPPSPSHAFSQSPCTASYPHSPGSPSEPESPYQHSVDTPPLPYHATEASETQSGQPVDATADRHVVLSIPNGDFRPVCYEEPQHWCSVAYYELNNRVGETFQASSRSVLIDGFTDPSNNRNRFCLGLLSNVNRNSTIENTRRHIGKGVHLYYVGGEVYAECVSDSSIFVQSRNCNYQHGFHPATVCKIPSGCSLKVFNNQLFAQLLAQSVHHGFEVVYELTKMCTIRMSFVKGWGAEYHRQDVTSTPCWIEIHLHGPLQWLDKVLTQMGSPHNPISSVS

Common to all, as to assay: co-IP; whole cell lysates in NP-40 lysis buffer with protease and phosphatase inhibitors; immunoprecipitated with anti-HA-PAK2 antibody at 4 °C overnight, protein A/G beads, immunoblotted with the corresponding antibodies (anti-FLAG or anti-HA)
Background: In western blotting, separated proteins are transferred to a membrane and probed.

The target of assay [1] is HA-tagged WT-PAK2 (p21-activated kinase 2) (human) (UniProt Q13177).
The next assay has as its target PAK2-P151S (human) (UniProt Q13177).
The next assay deals with PAK2-E253A (human) (UniProt Q13177).

“Flag-tagged WT Smad9 (from UniProt O15198 1-467)”: the binding entry is reported as “binds” in assay [1], “no binding” in the assay with PAK2-P151S (human) and “no binding” in the assay with PAK2-E253A (human).

As to “Flag-tagged kinase-deficient (S417E) Smad9 (from UniProt O15198 1-467)”, the binding result in assay [1] is listed as “no binding”.
